Source: PubChem BioAssay AID1259308 (NCATS, 2017)
The deposit covers about 59,000 reagents; shown is a part drawn at random. About 1,510 of all reagents (2.6%) count as active. 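Calls use total luciferase alone and ignore viability, so some active siRNAs may act by altering cell number.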 The numbers tell different reagents against one gene apart. Further read-outs or replicates are left out here.

- Aim: 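Genes whose loss raises luciferase production in HEK293 cells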 (primary screen)
- System: human HEK293 embryonic kidney cells stably expressing firefly luciferase (HEK-CMV-Luc2-Hygro)
- Reagents: single siRNA against human genes, 0.8 pmol siRNA per well
- Duration: 72 h
- Detection: 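Luciferase light (ONE-Glo) measured on one replicate plate set and viability (CellTiter-Glo) on the other, scaled to a negative control siRNA, with robust z-scores and luciferase per cell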
- Direction: total luciferase, z-score: higher = more reporter protein produced
- Active means: 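An siRNA counts as active if its total luciferase robust z-score exceeds 3; genes with two or more such siRNAs out of three were retested with fresh siRNAs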
- Calls: active = raised luciferase; inactive = no rise

no.	gene knocked down	reagent	total luciferase, z-score	activity call
1	UQCRB (ubiquinol-cytochrome c reductase binding protein)	1	0.0366	inactive
2	UQCRB (ubiquinol-cytochrome c reductase binding protein)	2	-0.552	inactive
3	UQCRB (ubiquinol-cytochrome c reductase binding protein)	3	-1.64	inactive
4	ANG (angiogenin)	1	-1.26	inactive
5	ANG (angiogenin)	2	-0.212	inactive
6	ANG (angiogenin)	3	-0.95	inactive
7	OR52B2 (olfactory receptor family 52 subfamily B member 2)	1	-0.599	inactive
8	OR52B2 (olfactory receptor family 52 subfamily B member 2)	2	-2.29	inactive
9	OR52B2 (olfactory receptor family 52 subfamily B member 2)	3	0.0777	inactive
10	OR5T1 (olfactory receptor family 5 subfamily T member 1)	1	0.0941	inactive
11	OR5T1 (olfactory receptor family 5 subfamily T member 1)	2	-0.381	inactive
12	OR5T1 (olfactory receptor family 5 subfamily T member 1)	3	-0.279	inactive
13	SPMIP5 (sperm microtubule inner protein 5)	1	-0.147	inactive
14	SPMIP5 (sperm microtubule inner protein 5)	2	-0.623	inactive
15	SPMIP5 (sperm microtubule inner protein 5)	3	-1.94	inactive
16	NIPSNAP1 (nipsnap homolog 1)	1	-2	inactive
17	NIPSNAP1 (nipsnap homolog 1)	2	0.933	inactive
18	NIPSNAP1 (nipsnap homolog 1)	3	-0.579	inactive
19	ZRANB2 (zinc finger RANBP2-type containing 2)	1	-0.39	inactive
20	ZRANB2 (zinc finger RANBP2-type containing 2)	2	-0.635	inactive
21	ZRANB2 (zinc finger RANBP2-type containing 2)	3	-0.803	inactive
22	CPNE8 (copine 8)	1	0.214	inactive
23	CPNE8 (copine 8)	2	0.183	inactive
24	CPNE8 (copine 8)	3	-0.678	inactive
25	NEUROG1 (neurogenin 1)	1	-0.403	inactive
26	NEUROG1 (neurogenin 1)	2	4.24	active
27	NEUROG1 (neurogenin 1)	3	-1.03	inactive
28	RGS19 (regulator of G protein signaling 19)	1	-0.783	inactive
29	RGS19 (regulator of G protein signaling 19)	2	0.667	inactive
30	RGS19 (regulator of G protein signaling 19)	3	0.232	inactive
31	SON (SON DNA and RNA binding protein)	1	-2.63	inactive
32	SON (SON DNA and RNA binding protein)	2	-2.74	inactive
33	SON (SON DNA and RNA binding protein)	3	-3.11	inactive

4 entries already listed, arranged by “total luciferase, z-score”, ascending.
gene knocked down	reagent	total luciferase, z-score	activity call
NEUROG1 (neurogenin 1)	3	-1.03	inactive
CPNE8 (copine 8)	3	-0.678	inactive
NEUROG1 (neurogenin 1)	1	-0.403	inactive
NEUROG1 (neurogenin 1)	2	4.24	active

The listing continues:
no.	gene knocked down	reagent	total luciferase, z-score	activity call
34	SPARC (secreted protein acidic and cysteine rich)	1	-1.04	inactive
35	SPARC (secreted protein acidic and cysteine rich)	2	-1.97	inactive
36	SPARC (secreted protein acidic and cysteine rich)	3	4.14	active
37	POLR2I (RNA polymerase II subunit I)	1	-3.25	inactive
38	POLR2I (RNA polymerase II subunit I)	2	-2.85	inactive
39	POLR2I (RNA polymerase II subunit I)	3	-1.45	inactive
40	PPIL4 (peptidylprolyl isomerase like 4)	1	1.89	inactive
41	PPIL4 (peptidylprolyl isomerase like 4)	2	3.54	active
42	PPIL4 (peptidylprolyl isomerase like 4)	3	0.178	inactive
43	SPATA7 (spermatogenesis associated 7)	1	0.906	inactive
44	SPATA7 (spermatogenesis associated 7)	2	-0.173	inactive
45	SPATA7 (spermatogenesis associated 7)	3	1.27	inactive
46	DDX27 (DEAD-box helicase 27)	1	-0.7	inactive
47	DDX27 (DEAD-box helicase 27)	2	-1.02	inactive
48	DDX27 (DEAD-box helicase 27)	3	0.147	inactive
49	TOMM70 (translocase of outer mitochondrial membrane 70)	1	0.455	inactive
50	TOMM70 (translocase of outer mitochondrial membrane 70)	2	1.02	inactive
51	TOMM70 (translocase of outer mitochondrial membrane 70)	3	-0.123	inactive
52	GOSR2 (golgi SNAP receptor complex member 2)	1	-0.032	inactive
53	GOSR2 (golgi SNAP receptor complex member 2)	2	0.241	inactive
54	GOSR2 (golgi SNAP receptor complex member 2)	3	1.01	inactive
55	LINC03086 (long independently transcribed non-coding RNA 3086)	1	-0.12	inactive
56	LINC03086 (long independently transcribed non-coding RNA 3086)	2	1.66	inactive
57	LINC03086 (long independently transcribed non-coding RNA 3086)	3	-1.06	inactive
58	VHL (von Hippel-Lindau tumor suppressor)	1	-0.609	inactive
59	VHL (von Hippel-Lindau tumor suppressor)	2	-0.219	inactive
60	VHL (von Hippel-Lindau tumor suppressor)	3	0.162	inactive
61	PSG2 (pregnancy specific beta-1-glycoprotein 2)	1	-0.92	inactive
62	PSG2 (pregnancy specific beta-1-glycoprotein 2)	2	1	inactive
63	PSG2 (pregnancy specific beta-1-glycoprotein 2)	3	-1.11	inactive
64	NTS (neurotensin)	1	-0.0343	inactive
65	NTS (neurotensin)	2	0.112	inactive
66	NTS (neurotensin)	3	0.36	inactive
67	VCF1 (VCP nuclear cofactor family member 1)	1	-2.39	inactive
68	VCF1 (VCP nuclear cofactor family member 1)	2	0.164	inactive
69	VCF1 (VCP nuclear cofactor family member 1)	3	0.699	inactive
70	CDA (cytidine deaminase)	1	-0.908	inactive
71	CDA (cytidine deaminase)	2	0.24	inactive
72	CDA (cytidine deaminase)	3	0.322	inactive
73	MS4A4E (membrane spanning 4-domains A4E)	1	-0.0187	inactive
74	MS4A4E (membrane spanning 4-domains A4E)	2	2.62	inactive
75	MS4A4E (membrane spanning 4-domains A4E)	3	3.4	active
